# Assay results reported in patent publication US6818646B2 (priority 2000, dated 2004).
# Biological target: PDEV (Homo sapiens, UniProt O76074)
# Assay: PDE assay: inhibition of PDEV isolated from human tissue
# Format: biochemical
# Conditions: PDEV inhibitory activity
row,IC50 [nM],SMILES
1,0.812,O=C(c1ccc(-c2cccc([N+](=O)[O-])c2)o1)N1Cc2c([nH]c3ccccc3c2=O)C1c1ccc2c(c1)OCO2 (stereo not shown)
2,1.97,O=C(c1ccc(-c2ccc3c(c2)OCO3)o1)N1Cc2c([nH]c3ccccc3c2=O)C1c1ccc2c(c1)OCO2 (stereo not shown)
3,4.01,Cc1ccc(-c2ccc(C(=O)N3Cc4c([nH]c5ccccc5c4=O)C3c3ccc4c(c3)OCO4)o2)cc1 (stereo not shown)
4,1.19,N#Cc1ccc(-c2ccc(C(=O)N3Cc4c([nH]c5ccccc5c4=O)C3c3ccc4c(c3)OCO4)o2)cc1 (stereo not shown)

# The structures given here were assigned with low confidence; some may be wrong.
